Source: article PMC11586526
Results are given in words; binding and its absence hold for the method and conditions named. In cells and extracts the contact can be indirect. Some results given as binding are weak or reduced against the parent protein; the word gives no strength. Where a sequence is shown, tags or fusion partners need not be part of it.

The chains behind the UniProt entries cited, without tags or fusion partners.
UniProt P19524: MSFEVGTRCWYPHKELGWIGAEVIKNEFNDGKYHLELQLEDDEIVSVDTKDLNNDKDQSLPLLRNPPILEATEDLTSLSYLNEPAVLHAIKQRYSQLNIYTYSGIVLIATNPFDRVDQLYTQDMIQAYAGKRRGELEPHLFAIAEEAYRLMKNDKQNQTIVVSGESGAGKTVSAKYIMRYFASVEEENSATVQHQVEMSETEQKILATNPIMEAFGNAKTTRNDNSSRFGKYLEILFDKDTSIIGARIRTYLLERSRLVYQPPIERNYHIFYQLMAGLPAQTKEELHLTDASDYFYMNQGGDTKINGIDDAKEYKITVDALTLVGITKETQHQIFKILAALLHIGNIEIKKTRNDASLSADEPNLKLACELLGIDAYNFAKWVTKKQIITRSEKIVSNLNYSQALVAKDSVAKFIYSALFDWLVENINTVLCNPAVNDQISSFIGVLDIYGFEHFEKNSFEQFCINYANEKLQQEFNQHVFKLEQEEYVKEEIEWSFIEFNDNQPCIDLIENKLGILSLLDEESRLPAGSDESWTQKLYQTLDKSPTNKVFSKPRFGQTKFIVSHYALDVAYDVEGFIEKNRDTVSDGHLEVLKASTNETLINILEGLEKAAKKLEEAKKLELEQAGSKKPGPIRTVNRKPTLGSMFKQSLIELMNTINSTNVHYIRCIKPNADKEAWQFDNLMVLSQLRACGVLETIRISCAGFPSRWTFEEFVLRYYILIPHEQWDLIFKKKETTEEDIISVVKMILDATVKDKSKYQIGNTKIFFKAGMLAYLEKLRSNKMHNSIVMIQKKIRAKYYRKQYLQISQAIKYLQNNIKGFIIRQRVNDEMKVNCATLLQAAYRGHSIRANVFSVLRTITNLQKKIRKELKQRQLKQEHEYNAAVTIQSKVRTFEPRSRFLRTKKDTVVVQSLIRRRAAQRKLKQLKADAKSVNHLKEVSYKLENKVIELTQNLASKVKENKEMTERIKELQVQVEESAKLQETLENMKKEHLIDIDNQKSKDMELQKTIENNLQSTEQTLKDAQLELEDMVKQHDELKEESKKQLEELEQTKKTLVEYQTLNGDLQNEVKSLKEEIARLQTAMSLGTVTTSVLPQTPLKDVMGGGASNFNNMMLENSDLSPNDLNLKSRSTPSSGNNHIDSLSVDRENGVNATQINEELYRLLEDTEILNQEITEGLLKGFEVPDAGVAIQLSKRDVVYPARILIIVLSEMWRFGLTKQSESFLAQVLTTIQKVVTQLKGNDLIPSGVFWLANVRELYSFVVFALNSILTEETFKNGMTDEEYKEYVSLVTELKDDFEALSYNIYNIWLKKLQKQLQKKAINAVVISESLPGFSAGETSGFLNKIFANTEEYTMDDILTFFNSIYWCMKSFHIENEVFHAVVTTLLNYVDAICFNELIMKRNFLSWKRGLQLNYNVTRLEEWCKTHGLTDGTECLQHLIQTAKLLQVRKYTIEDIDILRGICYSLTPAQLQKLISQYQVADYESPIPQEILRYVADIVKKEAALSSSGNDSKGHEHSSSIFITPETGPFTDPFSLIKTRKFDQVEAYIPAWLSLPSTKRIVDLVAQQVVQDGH

Biological target: Myo2 tagged with GFP in the genome (Myo2-GFP) (S. cerevisiae) (UniProt P19524)
Assay: co-IP; Myo2-GFP affinity purified on GFP-Trap agarose from extracts of WT and kin4Δfrk1Δ yeast cells expressing Vac17-ProtA; blots with anti-GFP and PAP

B1: Vac17 tagged with Staphylococcus aureus protein A (Vac17-ProtA) (protein, UniProt P25591 1-423)
chain: MATQALEDITERLLIRSQEAILQLDLWIQRQQRSSICQTTDQESLDKLSQQYNQYMSQLNSLYVRSESVRDKLSKEQQRRLITEDNEHQRIEDLVREFQDITLRLNELATVPNEAPNDSPQSQSTRSSLGSFQPRPLKIIERQRLCMVTPSKPPKKSVGFNPINEVDCPSKTNSLPCSPKKQPARNRTLRAAKSHDTGLNKSKKPSSSDTYESFFKNRQRLSLTFFDEMDDEDFDSDQDTIILPNISTPPHVGVTAKGAEFEPLRRYNSHESILSNKPAPSKSLNLGSFSASFFRPSNPTFGTSISNVQVNCHPTVAATMAPSRNGPRISSSKALLSSFIARSDTHTVKENNTNLKHASFMDKFNSSLSTISESFQSKRGRKNKGMNEERISNHNVAQEQKNNMDISVSIEELQDALNTELLF
In the case of B1, the binding is reported as “binds”.
